Source: paper PMC5130008

Amino acid sequences for entries named in this document (tags omitted). A change or cut given only in a name is not applied to a line headed by its entry.
UniProt P63330: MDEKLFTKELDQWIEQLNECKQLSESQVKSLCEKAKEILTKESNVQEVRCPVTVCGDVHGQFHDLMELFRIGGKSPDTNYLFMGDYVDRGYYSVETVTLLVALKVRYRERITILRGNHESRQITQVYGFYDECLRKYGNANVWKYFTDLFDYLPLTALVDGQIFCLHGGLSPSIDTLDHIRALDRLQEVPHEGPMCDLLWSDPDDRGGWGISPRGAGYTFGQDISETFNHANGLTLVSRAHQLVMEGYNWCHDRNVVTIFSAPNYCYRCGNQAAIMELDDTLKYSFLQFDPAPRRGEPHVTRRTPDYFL
UniProt P67775: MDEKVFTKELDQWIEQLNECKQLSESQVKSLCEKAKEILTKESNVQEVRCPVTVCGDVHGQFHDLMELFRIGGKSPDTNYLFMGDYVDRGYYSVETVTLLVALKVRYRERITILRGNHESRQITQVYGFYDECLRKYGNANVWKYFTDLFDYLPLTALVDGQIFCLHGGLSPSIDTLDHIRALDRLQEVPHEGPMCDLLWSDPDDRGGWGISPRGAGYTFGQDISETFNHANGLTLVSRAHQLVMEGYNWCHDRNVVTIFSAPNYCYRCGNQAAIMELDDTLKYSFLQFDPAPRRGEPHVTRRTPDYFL
UniProt Q01105: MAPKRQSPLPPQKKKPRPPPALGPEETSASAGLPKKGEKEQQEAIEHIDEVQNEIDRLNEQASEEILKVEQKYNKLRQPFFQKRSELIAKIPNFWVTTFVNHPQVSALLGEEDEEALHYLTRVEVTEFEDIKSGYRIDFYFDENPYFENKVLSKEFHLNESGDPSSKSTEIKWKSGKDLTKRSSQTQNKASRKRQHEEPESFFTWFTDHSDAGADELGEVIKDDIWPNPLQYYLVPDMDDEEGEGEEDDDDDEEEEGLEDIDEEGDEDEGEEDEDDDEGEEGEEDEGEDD
UniProt Q9EQU5: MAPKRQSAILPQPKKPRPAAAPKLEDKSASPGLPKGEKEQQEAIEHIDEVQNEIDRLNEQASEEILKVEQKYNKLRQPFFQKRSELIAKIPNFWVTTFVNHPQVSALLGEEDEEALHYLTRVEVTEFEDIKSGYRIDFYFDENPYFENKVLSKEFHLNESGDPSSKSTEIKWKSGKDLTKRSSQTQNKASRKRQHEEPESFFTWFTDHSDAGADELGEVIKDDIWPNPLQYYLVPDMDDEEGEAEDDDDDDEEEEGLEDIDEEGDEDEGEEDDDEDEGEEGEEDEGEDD
UniProt Q04206: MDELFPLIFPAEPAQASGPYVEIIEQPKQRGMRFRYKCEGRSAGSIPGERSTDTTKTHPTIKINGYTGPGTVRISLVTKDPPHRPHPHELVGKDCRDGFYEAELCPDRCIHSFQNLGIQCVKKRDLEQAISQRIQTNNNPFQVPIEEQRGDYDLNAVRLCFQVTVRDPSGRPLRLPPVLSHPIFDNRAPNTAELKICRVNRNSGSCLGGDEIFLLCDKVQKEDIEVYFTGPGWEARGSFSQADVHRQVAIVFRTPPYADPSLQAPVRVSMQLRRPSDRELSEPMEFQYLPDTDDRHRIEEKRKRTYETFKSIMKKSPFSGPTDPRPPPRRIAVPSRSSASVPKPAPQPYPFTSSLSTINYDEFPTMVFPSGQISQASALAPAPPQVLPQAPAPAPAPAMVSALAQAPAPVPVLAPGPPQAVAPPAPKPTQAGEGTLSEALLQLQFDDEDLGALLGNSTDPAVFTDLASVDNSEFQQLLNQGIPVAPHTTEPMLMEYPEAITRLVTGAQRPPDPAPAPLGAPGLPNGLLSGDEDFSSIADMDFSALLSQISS
UniProt Q04207: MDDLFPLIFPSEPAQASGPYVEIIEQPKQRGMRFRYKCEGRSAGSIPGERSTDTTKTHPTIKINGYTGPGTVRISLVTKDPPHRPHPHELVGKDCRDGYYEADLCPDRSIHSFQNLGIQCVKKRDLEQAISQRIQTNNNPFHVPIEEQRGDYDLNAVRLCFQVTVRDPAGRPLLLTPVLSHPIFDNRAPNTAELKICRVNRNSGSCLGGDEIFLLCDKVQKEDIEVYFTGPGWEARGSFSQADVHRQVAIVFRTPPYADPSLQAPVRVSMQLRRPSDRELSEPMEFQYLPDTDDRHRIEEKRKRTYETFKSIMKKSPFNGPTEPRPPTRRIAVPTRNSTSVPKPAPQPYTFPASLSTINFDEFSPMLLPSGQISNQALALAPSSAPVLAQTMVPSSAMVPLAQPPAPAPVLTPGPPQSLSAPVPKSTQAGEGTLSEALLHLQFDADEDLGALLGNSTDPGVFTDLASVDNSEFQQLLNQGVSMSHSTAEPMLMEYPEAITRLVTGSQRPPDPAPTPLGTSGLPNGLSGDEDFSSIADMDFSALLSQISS

Key:
[1] = target: PP2A-C (the catalytic subunit of PP2A) (mouse, H22 cells) (mouse (endogenous in H22)) (UniProt P63330); assay: co-IP; endogenous proteins in lysates of tumor tissues (Huh-7 xenografts in nude mice, H22 transplanted tumors in Kunming mice; RIPA buffer), protein G sepharose pre-absorbed with the indicated primary antibody, 4°C, 2 h, immunoblotting; mice treated with isolie or saline; which partner was precipitated is not told
[2] = target: PP2A-C (the catalytic subunit of PP2A) (human (endogenous in HepG2 and Huh-7)) (UniProt P67775); assay: co-IP; endogenous proteins in lysates of cultured HCC cells (RIPA buffer), protein G sepharose pre-absorbed with the indicated primary antibody, 4°C, 2 h, immunoblotting; cells treated with isolie for 24 h or transfected with I2PP2A siRNA; which partner was precipitated is not told
[3] = target: PP2A-C (the catalytic subunit of PP2A) (human (endogenous in HepG2 and Huh-7)) (UniProt P67775); assay: co-IP; endogenous proteins in lysates of tumor tissues (Huh-7 xenografts in nude mice, H22 transplanted tumors in Kunming mice; RIPA buffer), protein G sepharose pre-absorbed with the indicated primary antibody, 4°C, 2 h, immunoblotting; mice treated with isolie or saline; which partner was precipitated is not told
[4] = target: PP2A-C (the catalytic subunit of PP2A) (mouse, H22 cells) (mouse (endogenous in H22)) (UniProt P63330); assay: co-IP; endogenous proteins in lysates of cultured HCC cells (RIPA buffer), protein G sepharose pre-absorbed with the indicated primary antibody, 4°C, 2 h, immunoblotting; cells treated with isolie for 24 h or transfected with I2PP2A siRNA; which partner was precipitated is not told
[5] = target: Recombinant human I2PP2A protein with 6 × his tag (human) (UniProt Q01105); assay: pull-down; 2 μg 6 × his-tagged I2PP2A bound to Ni-NTA agarose, 1 μg PP2A-C in 1 mL binding buffer (20 mM Tris-HCl pH 8.0, 1 mM EDTA, 150 mM NaCl, 10% glycerol, 0.1% Nonidet P-40), with different concentrations of isolie, 4°C, 3 h; immunoblotting; both purified

Substance	binding [1]	binding [2]	binding [3]	further results
I2PP2A (mouse, H22 tumors) (from UniProt Q9EQU5 1-289)	binds			
NF-κB p65 subunit (from UniProt Q04206 1-551)		binds	binds	
Recombinant human PP2A-C protein (from UniProt P67775) (enzyme)				binding [5]: binds

The next lines start with results.

binding [1]	binding [2]	binding [3]	Substance	further results
	binds	binds	I2PP2A, also known as SET (from UniProt Q01105 1-290)	
binds			NF-κB p65 subunit (mouse, H22 cells) (from UniProt Q04207 1-549)	binding [4]: binds

These are yes or no findings as the source states them, for the method shown. A result given as binding can be weak or reduced; the word gives no strength. For some assays here: In cells and extracts the contact can be indirect.
